Source: the supplement of paper PMC4604168 (melanoma cell lines)
The other results are listed elsewhere or left out. Many values rest on one well or one pass, so single values are uncertain.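 Imaging used 1,536-well plates; nuclei positive for cleaved PARP by antibody were divided by total DNA-stained nuclei to yield the apoptosis fraction. Doses for screening kept most cells viable, and cell lines differ markedly in resting and induced cleaved-PARP levels.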

Columns and labels:
Experiment in all cases: cleaved PARP positive nuclei fraction relative to DMSO control; melanoma cells; higher = more apoptosis
Conditions in all cases: library dose: low library concentration; 72 h
[1] = system: 501Mel
[2] = system: A101D
[3] = system: A2058
[4] = system: A375
[5] = system: C32
[6] = system: CBRC008 (line from a melanoma biopsy)
[7] = system: CBRC013 (line from a melanoma biopsy)
[8] = system: CBRC014 (line from a melanoma biopsy)
[9] = system: CBRC016 (line from a melanoma biopsy)
[10] = system: CBRC017 (line from a melanoma biopsy)
[11] = system: COLO792
[12] = system: COLO800
[13] = system: COLO829
[14] = system: G361
[15] = system: IPC-298
[16] = system: IST-MEL1
[17] = system: LB2518-MEL
[18] = system: LOXIMVI
[19] = system: MEL-HO

SMILES | cleaved PARP positive nuclei fraction [1] | cleaved PARP positive nuclei fraction [2] | cleaved PARP positive nuclei fraction [3] | cleaved PARP positive nuclei fraction [4] | cleaved PARP positive nuclei fraction [5] | cleaved PARP positive nuclei fraction [6] | cleaved PARP positive nuclei fraction [7] | cleaved PARP positive nuclei fraction [8] | cleaved PARP positive nuclei fraction [9] | cleaved PARP positive nuclei fraction [10] | cleaved PARP positive nuclei fraction [11] | cleaved PARP positive nuclei fraction [12] | cleaved PARP positive nuclei fraction [13] | cleaved PARP positive nuclei fraction [14] | cleaved PARP positive nuclei fraction [15] | cleaved PARP positive nuclei fraction [16] | cleaved PARP positive nuclei fraction [17] | cleaved PARP positive nuclei fraction [18] | cleaved PARP positive nuclei fraction [19]
Cn1c(Nc2ccc(C(F)(F)F)cc2)nc2cc(Oc3ccnc(-c4ncc(C(F)(F)F)[nH]4)c3)ccc21 + COc1cc2c(Oc3ccc4[nH]c(C)cc4c3F)ncnc2cc1OCCCN1CCCC1 [cediranib] (first compound 0.08 µM, partner dose 0.4 µM) | 212% | 123% | 167% | 294% | 154% | 290% | 177% | 105% | 286% | 129% | 209% | 37.1% | 157% | 192% | 210% | 103% | 191% | 39.9% | 119%
OCc1c[nH]c2ccccc12 [Indole-3-carbinol] + NC(=O)Nc1cc(-c2cccc(F)c2)sc1C(=O)N[C@H]1CCCNC1 [AZD7762] (first compound 0.8 µM, partner dose 0.02 µM) | 84.7% | 183% | 42.3% | 565% | 150% | 119% | 59.2% | 88.5% | 72.5% | 375% | 187% | 73% | 141% | 88.2% | 83.5% | 77.5% | 74.3% | 55.9% | 31%
Cn1c(Nc2ccc(C(F)(F)F)cc2)nc2cc(Oc3ccnc(-c4ncc(C(F)(F)F)[nH]4)c3)ccc21 + Cc1ccc(NC(=O)c2cccc(N(C)C)c2)cc1NC(=O)c1ccc(O)cc1 [ZM336372] (first compound 0.08 µM, partner dose 2 µM) | 289% | 136% | 260% | 482% | 181% | 291% | 159% | 106% | 113% | 116% | 193% | 108% | 194% | 226% | 179% | 77.6% | 213% | 400% | 141%
Cc1nc(Nc2ncc(C(=O)Nc3c(C)cccc3Cl)s2)cc(N2CCN(CCO)CC2)n1 [dasatanib] + NCC(=O)Nc1ccc(-n2nc(C(F)(F)F)cc2-c2ccc3c(ccc4ccccc43)c2)cc1 [OSU03012] (first compound 0.004 µM, partner dose 1 µM) | 182% | 179% | 115% | 4830% | 173% | 116% | 103% | 123% | 97.5% | 113% | 279% | 154% | 186% | 85.8% | 185% | 113% | 145% | 94.1% | 36.3%
Nc1cccc2c1CN(C1CCC(=O)NC1=O)C2=O (stereo not drawn) [lenalidomide] + CC(C)(C)c1cnc(CSc2cnc(NC(=O)C3CCNCC3)s2)o1 [SNS-032] (first compound 1 µM, partner dose 0.01 µM) | 75.9% | 79.9% | 124% | 89.8% | 118% | 211% | 147% | 167% | 182% | 85.2% | 128% | 73.8% | 96.9% | 63.6% | 43.4% | 102% | 89.3% | 24.2% | 95.9%
C#Cc1cccc(Nc2ncnc3cc(OCCOC)c(OCCOC)cc23)c1 [erlotinib] + CN(C)S(=O)(=O)c1ccc2c(c1)/C(=C/c1cc3c([nH]1)CCCC3)C(=O)N2 [SU6656] (first compound 0.8 µM, partner dose 0.4 µM) | 428% | 105% | 96.9% | 81.9% | 187% | 41.6% | 128% | 67.7% | 75.3% | 131% | 107% | 30.1% | 80.1% | 89.7% | 32.7% | 96.5% | 174% | 20.8% | 71.3%
COc1cc(Nc2ncc(F)c(Nc3ccc4c(n3)NC(=O)C(C)(C)O4)n2)cc(OC)c1OC [Tamatinib] + CN(C)S(=O)(=O)c1ccc2c(c1)/C(=C/c1cc3c([nH]1)CCCC3)C(=O)N2 [SU6656] (first compound 0.4 µM, partner dose 0.4 µM) | 165% | 288% | 243% | 179% | 125% | 471% | 162% | 117% | 123% | 121% | 139% | 263% | 61.7% | 76.1% | 103% | 142% | 51.3% | 44% | 46.1%
Cn1cncc1[C@@](N)(c1ccc(Cl)cc1)c1ccc2c(c1)c(-c1cccc(Cl)c1)cc(=O)n2C [tipifarnib] + CN(NC(=O)CC(=O)NN(C)C(=S)c1ccccc1)C(=S)c1ccccc1 [STA4783] (first compound 0.01 µM, partner dose 0.006 µM) | 253% | 123% | 315% | 4270% | 233% | 1320% | 94.1% | 367% | 274% | 402% | 220% | 268% | 229% | 372% | 207% | 101% | 147% | 190% | 72%
Cn1c(Nc2ccc(C(F)(F)F)cc2)nc2cc(Oc3ccnc(-c4ncc(C(F)(F)F)[nH]4)c3)ccc21 + COc1cc(Nc2ncc(F)c(Nc3ccc4c(n3)NC(=O)C(C)(C)O4)n2)cc(OC)c1OC [Tamatinib] (first compound 0.08 µM, partner dose 0.4 µM) | 85.4% | 594% | 77.1% | 66.5% | 44.3% | 579% | 128% | 150% | 145% | 107% | 251% | 52.3% | 103% | 196% | 357% | 165% | 154% | 23.3% | 71.7%
Cn1c(Nc2ccc(C(F)(F)F)cc2)nc2cc(Oc3ccnc(-c4ncc(C(F)(F)F)[nH]4)c3)ccc21 + CN(NC(=O)CC(=O)NN(C)C(=S)c1ccccc1)C(=S)c1ccccc1 [STA4783] (first compound 0.08 µM, partner dose 0.006 µM) | 137% | 67.4% | 198% | 488% | 130% | 1360% | 80.7% | 303% | 266% | 167% | 216% | 164% | 104% | 184% | 173% | 175% | 82.6% | 106% | 94.2%
CO[C@@H]1[C@H](N(C)C(=O)c2ccccc2)C[C@H]2O[C@]1(C)n1c3ccccc3c3c4c(c5c6ccccc6n2c5c31)C(=O)NC4 [Midostaurin] + C[C@@H]1CCN(C(=O)CC#N)C[C@@H]1N(C)c1ncnc2[nH]ccc12 [CP690550] (first compound 0.08 µM, partner dose 1 µM) | 148% | 180% | 22% | 187% | 145% | 121% | 182% | 103% | 301% | 130% | 219% | 51.3% | 198% | 60.3% | 96.7% | 34.3% | 185% | 55.8% | 88.5%
C=CCn1c(=O)c2cnc(Nc3ccc(N4CCN(C)CC4)cc3)nc2n1-c1cccc(C(C)(C)O)n1 + O=C(Nc1cccc(Cl)c1)Nc1ncc(CCNc2ncnc3ccsc23)s1 [SNS314] (first compound 0.02 µM, partner dose 0.0008 µM) | 172% | 49.7% | 107% | 228% | 137% | 71.9% | 110% | 119% | 58.8% | 100% | 79.4% | 164% | 76% | 93.5% | 63.2% | 65.6% | 114% | 272% | 127%
CO[C@@H]1[C@H](N(C)C(=O)c2ccccc2)C[C@H]2O[C@]1(C)n1c3ccccc3c3c4c(c5c6ccccc6n2c5c31)C(=O)NC4 [Midostaurin] + COc1cc2c(Oc3ccc4[nH]c(C)cc4c3F)ncnc2cc1OCCCN1CCCC1 [cediranib] (first compound 0.08 µM, partner dose 0.4 µM) | 70.1% | 230% | 69.5% | 282% | 41.3% | 179% | 118% | 83.7% | 271% | 110% | 156% | 90.2% | 42.6% | 79% | 44.9% | 51.6% | 20.3% | 59% | 134%
Nc1cccc2c1CN(C1CCC(=O)NC1=O)C2=O (stereo not drawn) [lenalidomide] + CO[C@@H]1[C@H](N(C)C(=O)c2ccccc2)C[C@H]2O[C@]1(C)n1c3ccccc3c3c4c(c5c6ccccc6n2c5c31)C(=O)NC4 [Midostaurin] (first compound 1 µM, partner dose 0.08 µM) | 73.6% | 79% | 95.2% | 210% | 143% | 120% | 111% | 91.2% | 193% | 96% | 112% | 45% | 69.7% | 36.6% | 96.3% | 118% | 99.5% | 32.7% | 295%
Cc1ccc(NC(=O)c2cccc(N(C)C)c2)cc1NC(=O)c1ccc(O)cc1 + CN(NC(=O)CC(=O)NN(C)C(=S)c1ccccc1)C(=S)c1ccccc1 [STA4783] (first compound 2 µM, partner dose 0.006 µM) | 218% | 362% | 314% | 5120% | 102% | 1610% | 141% | 1330% | 222% | 348% | 129% | 61.9% | 187% | 122% | 125% | 252% | 270% | 133% | 78.7%
Nc1cccc2c1CN(C1CCC(=O)NC1=O)C2=O (stereo not drawn) [lenalidomide] + Cn1cncc1[C@@](N)(c1ccc(Cl)cc1)c1ccc2c(c1)c(-c1cccc(Cl)c1)cc(=O)n2C [tipifarnib] (first compound 1 µM, partner dose 0.01 µM) | 82.6% | 93.8% | 76.5% | 75% | 51.6% | 62.6% | 154% | 94.9% | 176% | 97.8% | 78.1% | 88.1% | 107% | 86.1% | 46% | 96.9% | 101% | 42.2% | 133%
Cc1ccc(NC(=O)c2cccc(N(C)C)c2)cc1NC(=O)c1ccc(O)cc1 + CO[C@@H]1[C@H](N(C)C(=O)c2ccccc2)C[C@H]2O[C@]1(C)n1c3ccccc3c3c4c(c5c6ccccc6n2c5c31)C(=O)NC4 [Midostaurin] (first compound 2 µM, partner dose 0.08 µM) | 225% | 133% | 114% | 82% | 166% | 111% | 101% | 102% | 169% | 104% | 48% | 94.9% | 90.9% | 59.3% | 123% | 47% | 75.6% | 77.4% | 41.2%

A few values from above:
cleaved PARP positive nuclei fraction [17], Cn1c(Nc2ccc(C(F)(F)F)cc2)nc2cc(Oc3ccnc(-c4ncc(C(F)(F)F)[nH]4)c3)ccc21 + COc1cc2c(Oc3ccc4[nH]c(C)cc4c3F)ncnc2cc1OCCCN1CCCC1 [cediranib] (first compound 0.08 µM, partner dose 0.4 µM) is entered as 191%
cleaved PARP positive nuclei fraction [18], Cn1c(Nc2ccc(C(F)(F)F)cc2)nc2cc(Oc3ccnc(-c4ncc(C(F)(F)F)[nH]4)c3)ccc21 + Cc1ccc(NC(=O)c2cccc(N(C)C)c2)cc1NC(=O)c1ccc(O)cc1 [ZM336372] (first compound 0.08 µM, partner dose 2 µM) is entered as 400%
